According to patent US20040097529A1, “Novel use of arylethene sulfonamide derivative” (priority 2001, published 2004):

System: diabetic rats induced by streptozotocin (STZ)
Assay: Effect on the blood parameter and urinary parameter in diabetic rats induced by streptozotocin (STZ)
Type: in vivo, Wistar (Crj) rats
Conditions: Compound 1 1 mg/kg p.o., after 2 weeks
Method: Wistar (Crj) rats of 9 weeks of age were divided into 5 groups so that there was no bias in urinary albumin excretion. To the 4 groups of the rats was administered intravenously STZ (50 mg/kg). […] After the lapse of 2, 4 and 6 weeks from the start of administration, urine was collected for 24 hours in a metabolic cage to measure a urinary parameter. The blood was collected from the tail vein after 2 and 4 weeks and from the abdominal aorta under anesthesia after 6 weeks to measure a blood parameter.
The results were indicated by the mean±error. In comparison between the Sham group and the STZ-Cont. group, a t-test was made without correspondence, and when the significant level is less than 5%, it is considered as a significant difference. In comparison between the STZ-dose groups of rats, multiple comparison (Dunnett's test) was made respectively without correspondence following the variance analysis of one-way classification. When the significant level is less than 5%, it is considered as a significant difference.

SMILES: COc1ccccc1Oc1c(NS(=O)(=O)C=Cc2ccccc2)nc(-c2ncccn2)nc1OC [Compound 1, N-[6-Methoxy-5-(2-methoxyphenoxy)-2-(pyrimidin-2-yl)pyrimidin-4-yl]-2-phenylethenesulfonamide]
- inhibition of elevation of creatinine clearance (Ccr): there was a tendency that elevation of Ccr after 2 weeks from the start of administration was inhibited
